Assay: Sensitivity measurement: acrylate conversion by FT-IR before and after exposure
Conditions: 1 g photoinitiator in composition, 2.5 μm film, high-pressure mercury lamp 20 mW/cm^2 for 5 sec

CCn1c2ccc(C(=O)c3ccccc3C)cc2c2cc(/C(C)=N/OC(C)=O)ccc21 [Comparative Example 1]
Acrylate conversion (%): 38%

CC(=O)O/N=C(\C)c1ccc(-c2nc(C(Cl)(Cl)Cl)nc(C(Cl)(Cl)Cl)n2)cc1 [Comparative Example 2, 2,4-trichloromethyl-(4′-acetylphenylacetoxime)-6-triazine]
Acrylate conversion (%): 36%

CC(=O)O/N=C/c1ccc(-c2ccc(-c3nc(C(Cl)(Cl)Cl)nc(C(Cl)(Cl)Cl)n3)cc2)cc1 [Comparative Example 3, 2,4-trichloromethyl-(4′-formylbiphenylacetoxime)-6-triazine]
Acrylate conversion (%): 39%

CCn1c2ccc(C(=O)c3ccc(OCC4COC(C)(C)O4)cc3)cc2c2cc(/C(CC(c3ccccc3)N(OC(C)=O)C(C)=O)=N/OC(C)=O)ccc21 (stereo not shown) [Example 1]
Acrylate conversion (%): 40%

From patent US8252507B2, “Photoactive compound and photosensitive resin composition comprising the same” (LG Chem, Ltd., priority 2008, dated 2012)
